Test results as given in patent US12268747B2, “Polypeptides having anti-senescent effects and uses thereof” (OneSkin, Inc., priority 2019, dated 2025).
At least one peptide structure holds a part that was inferred or is arguable (an end, a ring closure or a residue). Peptide text beside a SMILES is read from it.

Assays:
[1] = tested on: Primary fibroblasts isolated from 3 healthy chronologically aged patients; assay: SA-B-galactosidase senescence in fibroblasts of aged donors, concentration series; type: cell-based, human; settings: 1.56-50 μM (Peptide 16: 1.56-25 μM), 48 hours; in at least one of the tested concentrations
Description: Primary fibroblasts isolated from 3 healthy chronologically aged patients were used. Cells were cultured in DMEM (Dulbecco's Modified Eagle's Medium) supplemented with 10% v.v. fetal bovine serum (FBS), and 1% v.v. of penicillin/streptomycin solution (1,000 U·mL−1). Cells were kept in a 5% CO2, 37° C. and 95% humidity atmosphere. After expansion, these cells were seeded in 96-well plates (4,000 cells per well) and, 6 hours after plating the cells were treated with one of 4 senotherapeutic polypeptides (Peptide 14, Peptide 13, Peptide 15, and Peptide 16) and incubated for 48 hours. Each polypeptide was tested at 6 different concentrations: 50 μM, 25 μM, 12.5 μM, 6.25 μM, 3.12 μM, and 1.56 μM, except for Peptide 16, which was tested at 5 different concentrations: 25 μM, 12.5 μM, 6.25 μM, 3.12 μM, and 1.56 μM. A negative control comprised untreated cells, which received vehicle only. After incubation, relative cellular senescence (assessed by the activity of senescence associated B-galactosidase staining relative to untreated control) was analyzed (FIG. 2, panels A-D), in which the Y axis indicates the relative senescence levels normalized to untreated control. […] Data was analyzed using Analysis of Variance (ANOVA) and a Bonferroni post-hoc tests. Statistical significance was determined as p values equal or lower than 0.05.

[2] = tested on: Human primary fibroblasts isolated from 3 healthy chronologically aged (elder) donors; assay: 3-week exposure: SA-β-galactosidase senescence and proliferation; type: cell-based; settings: 3.12 μM for 21 days, no treatment days 21 to 28
Description: Human primary fibroblasts isolated from 3 healthy chronologically aged (elder) donors were used. These cells were cultured in DMEM (Dulbecco's Modified Eagle's Medium) supplemented with 10% v.v. fetal bovine serum (FBS), and 1% v.v. of penicillin/streptomycin solution (1,000 U·mL−1). Cells were kept in a 5% CO2, 37° C. and 95% humidity atmosphere. After expansion, these cells were seeded in T-75 flasks (250,000 cells per flask) and, 6 hours after plating, were incubated for 3 weeks (21 days) with Peptide 14 at 3.12 μM. A negative control comprised untreated cells, which received vehicle only. Day 0 was defined as the day cells started to be treated with Peptide 14. No Peptide 14 treatment was performed between days 21 and 28. Weekly, cellular senescence was assessed according to senescence associated β-galactosidase staining levels. Data was normalized to untreated group and plotted (FIG. 4, panel A). Cellular proliferation was also determined weekly. At days 7, 14, 21, and 28, cells were trypsinized and counted (FIG. 4, panel B). After counting, 250,000 cells were plated in new T-75 flasks. Three independent experiments (biological replicates) including three technical replicates were performed. Data was analyzed using T-test. Statistical significance was determined as p values equal or lower than 0.05.

Caenorhabditis elegans = assay: C. elegans healthspan and lifespan; type: in vivo
Description: Senotherapeutic strategies can be linked to healthspan and lifespan extension in vivo. In order to assess whether Peptide 14 promotes extended healthspan and lifespan, Caenorhabditis elegans worms were used. Peptide 14 was added in the worm media (M9 buffer media) at different concentrations of 1 μM or 2 μM. Negative control worms received vehicle only. Two healthspan parameters were assessed i) pharyngeal pumping and ii) worm movement. Lifespan was also determined. For pharyngeal pumping analysis, 15 worms had their pharynx movement (pumping) observed daily and counted for 20 seconds. This experiment was repeated 3 times, by 2 different blind observers, employing different populations of animals at different days. Statistical difference was detected by analyzing each individual time point by One-Way ANOVA and Dunnet's post hoc test. All groups were compared with the H2O group. For worm movement analysis, the basic movement of C. elegans, also called thrashing, was measured daily for 15 worms. Observation duration was 30 seconds. The experiment was repeated 3 times, by 2 different blind observers, employing different populations of worms at different days. Statistical difference was detected by analyzing each individual time point by One-Way ANOVA and Dunnet's post hoc, and all groups were compared with the H2O group. For lifespan analysis, 15 worms had their lifespan observed daily until the last worm died. This experiment was repeated 3 times, by 2 different blind observers, employing different populations of worms at different days. The average lifespan was measured. Statistical difference was detected by analyzing each individual time point by One-Way ANOVA and Dunnet's post hoc, and all groups were compared with the H2O group (FIG. 18).

[3] = tested on: Primary fibroblasts isolated from 7 healthy chronologically aged patients; assay: ATRX foci dose response in fibroblasts of 7 donors; type: cell-based, human; settings: 1.56-25 μM, p<0.0004
[4] = tested on: p16, BLIMP1, ZYG11B, IL-8, Ki-67, ZIC1, MMP1, HAS2 mRNA in 3D skin equivalents; assay: 3D skin equivalents: relative mRNA expression of senescence, aging and health markers; type: cell-based, human
Description: 3D skin equivalent sections of samples built with cells from elder donors ([…]) were treated with 1 μM Peptide 14 or Peptide 13, or 20 μM Retinoic Acid (RA) and assessed for the effect of the various treatments of various markers of senescence, aging, and health.
Data are presented as 2-ddCt normalized to GAPDH and untreated control. *p<0.05. Peptide 13 and Peptide 14-treated samples generally had similar relative mRNA expression levels for p16, BLIMP1, ZYG11B, IL-8, and Ki-67 in the epidermal layer, and for p16, MMP1, HAS2, IL-8, and Ki-67 in the dermal layer. Peptide 13 and Peptide 14-treated samples generally had lower relative mRNA expression levels than RA-treated samples for p16, BLIMP1, ZYG11B, IL-8, in the epidermal layer and for p16, MMP1, IL-8, and Ki-67 in the dermal layer. Peptide 13 and Peptide 14-treated samples generally had higher relative mRNA expression levels than RA-treated samples for Ki-67 in the epidermal layer and for HAS2 for the dermal layer. Peptide 13 and Peptide 14-treated samples had similar relative mRNA expression levels as RA-treated samples for ZIC1 and Ki-67 for dermal layer.

[5] = tested on: facial skin of human subjects; assay: Split-face clinical study of topical application; type: in vivo; settings: 0.01% formulation, compared to baseline
[6] = 1 μM peptide vs 20 μM Retinoic Acid

Compound: CC[C@H](C)[C@H](NC(=O)CNC(=O)[C@H](CCCCN)NC(=O)[C@H](CC(C)C)NC(=O)[C@H](Cc1c[nH]c2ccccc12)NC(=O)[C@H](Cc1c[nH]cn1)NC(=O)[C@H](CCCCN)NC(=O)[C@H](C)NC(=O)[C@@H](NC(=O)[C@@H](N)CCC(=O)O)[C@@H](C)O)C(=O)O [Peptide 14, ETAKHWLKGI] (H-ETAKHWLKGI-OH; N-terminus and C-terminus assumed)
- relative cellular senescence (SA-B-galactosidase staining) vs untreated control [1]: senotherapeutic effects
- senotherapeutic effect maintained after polypeptide removal [2]: at least 7 days
- pharyngeal pumping (Caenorhabditis elegans; 1 μM or 2 μM in worm media): improved
- worm thrashing (Caenorhabditis elegans; 1 μM or 2 μM in worm media): improved
- defects in the macroscopic anatomy of the pharynx (bent or swollen) vs H2O control (Caenorhabditis elegans; 1 μM, not directly measured): reduced
- dose-response: concentration vs ATRX foci/nuclei [3]: significantly correlated
- relative mRNA, Peptide 13 vs Peptide 14: p16, BLIMP1, ZYG11B, IL-8, Ki-67 (epidermal); p16, MMP1, HAS2, IL-8, Ki-67 (dermal) ([4]; 1 μM each): similar
- relative mRNA vs RA-treated samples: Ki-67 (epidermal), HAS2 (dermal) [4, 6]: higher
- relative mRNA vs RA-treated samples: ZIC1 and Ki-67 (dermal) [4, 6]: similar
- relative mRNA vs RA-treated samples: p16, BLIMP1, ZYG11B, IL-8 (epidermal); p16, MMP1, IL-8, Ki-67 (dermal) [4, 6]: lower
- skin hydration by Corneometer vs negative control side [5]: higher
